Experimental data taken from publication PMC3735429, “Plasmodium falciparum encodes a conserved active inhibitor-2 for Protein Phosphatase type 1: perspectives for novel anti-plasmodial therapy” (BMC Biology, 2013).

B1: native PfI2 (protein, UniProt C0H480 1-144)
chain: MKKKVDKSVTKKTISWDEVTINEQDKERGSRMKILEPNTPFNFILMDSASEDEASKYGDVKGSDEGQNNIADDLINKLNQLVEKQENKGVSNIDFKEKRKKHYNEYKMLQKLRKSGTLDDIDEEYKPDNKDSNCDNSNMNESEE
B2: PfI2-Gal4-AD (protein, UniProt C0H480 1-144)
chain: MKKKVDKSVTKKTISWDEVTINEQDKERGSRMKILEPNTPFNFILMDSASEDEASKYGDVKGSDEGQNNIADDLINKLNQLVEKQENKGVSNIDFKEKRKKHYNEYKMLQKLRKSGTLDDIDEEYKPDNKDSNCDNSNMNESEE
B3: PfI2(19–144)-Gal4-AD (domain or fragment, UniProt C0H480 19-144)
chain: VTINEQDKERGSRMKILEPNTPFNFILMDSASEDEASKYGDVKGSDEGQNNIADDLINKLNQLVEKQENKGVSNIDFKEKRKKHYNEYKMLQKLRKSGTLDDIDEEYKPDNKDSNCDNSNMNESEE
B4: PfI2(1–94)-Gal4-AD (domain or fragment, UniProt C0H480 1-94)
chain: MKKKVDKSVTKKTISWDEVTINEQDKERGSRMKILEPNTPFNFILMDSASEDEASKYGDVKGSDEGQNNIADDLINKLNQLVEKQENKGVSNID

Columns and labels:
[1] = molecular target: His6-PfPP1 (Plasmodium falciparum); experiment: pull-down; His6-PfPP1 retained on Ni-NTA beads; 10 mg total protein extract of asynchronous P. falciparum, pre-cleared on Ni-NTA beads, incubated overnight; eluate blotted with anti-PfI2; only the target purified
[2] = molecular target: PfPP1-Gal4-BD (Plasmodium falciparum); experiment: two-hybrid; PfPP1 on Gal4-BD (Y187) mated with PfI2 versions on Gal4-AD (AH109); growth of diploids on SD-LWH for 4 days
[3] = molecular target: PfPP1-Gal4-BD (Plasmodium falciparum); experiment: two-hybrid; PfPP1 on Gal4-BD (Y187) mated with PfI2 versions on Gal4-AD (AH109); growth of diploids on stringent SD-LWHA for 4 days

Row | Binder | binding [1] | binding [2] | binding [3]
1 | B1 | binds | – | –
2 | B2 | – | binds | binds
3 | B3 | – | binds | binds
4 | B4 | – | no binding | –

These are yes or no findings as the source states them, for the method shown. Binding calls can cover weak binding; strength is not graded here. For part of these data: Tags and fused reporters may be left off the sequences shown. For part of these data: In cells and extracts the contact can be indirect.
